Measured values published in paper PMC10933402.
These are yes or no findings as the source states them, for the method shown. For some assays here: Binding seen in cells or lysates may run through a third protein. Some binding calls cover weakened binding; strength is not graded here. For some assays here: Tags and fused reporters may be left off the sequences shown. Values belong to the molecule of their own block, whether it stands above or below them.

What was measured:
[1] = molecular target: T1, GST-MARS (UniProt P56192); experiment: pull-down; 10 pmol GST-MARS on glutathione beads, then mock or 100 pmol RNA with 5′-P or 5′-Pme ends, then 100 pmol EPRS in binding buffer 1 (50 mM Tris-HCl pH 8, 50 mM NaCl, 0.5% NP-40), 2 h at 4 °C; both purified
T1 sequence: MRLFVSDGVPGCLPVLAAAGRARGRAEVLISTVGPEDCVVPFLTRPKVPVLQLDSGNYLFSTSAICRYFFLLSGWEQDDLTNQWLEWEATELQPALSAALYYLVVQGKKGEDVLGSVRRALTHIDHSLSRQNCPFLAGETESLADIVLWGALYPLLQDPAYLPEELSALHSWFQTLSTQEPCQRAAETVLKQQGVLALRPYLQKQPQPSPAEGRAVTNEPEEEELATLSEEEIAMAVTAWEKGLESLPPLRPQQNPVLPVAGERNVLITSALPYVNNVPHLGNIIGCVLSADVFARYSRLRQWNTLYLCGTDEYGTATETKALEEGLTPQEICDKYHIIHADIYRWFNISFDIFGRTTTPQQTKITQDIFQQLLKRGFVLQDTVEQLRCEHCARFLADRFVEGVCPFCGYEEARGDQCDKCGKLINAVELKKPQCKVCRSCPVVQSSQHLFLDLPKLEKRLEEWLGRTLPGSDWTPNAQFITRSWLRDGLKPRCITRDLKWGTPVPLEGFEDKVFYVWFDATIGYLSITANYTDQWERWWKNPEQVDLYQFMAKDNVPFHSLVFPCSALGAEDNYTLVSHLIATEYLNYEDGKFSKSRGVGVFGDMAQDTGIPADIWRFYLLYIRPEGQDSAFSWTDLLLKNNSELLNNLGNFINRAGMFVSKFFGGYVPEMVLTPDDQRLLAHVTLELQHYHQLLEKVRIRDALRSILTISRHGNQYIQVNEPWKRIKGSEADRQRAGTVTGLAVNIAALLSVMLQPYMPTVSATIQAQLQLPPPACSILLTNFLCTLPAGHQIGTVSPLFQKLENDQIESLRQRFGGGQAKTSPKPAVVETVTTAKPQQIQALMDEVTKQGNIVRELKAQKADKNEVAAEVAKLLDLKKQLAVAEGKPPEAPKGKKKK

[2] = molecular target: T2, BCDIN3D-FLAG (human) (UniProt Q7Z5W3); experiment: co-IP; as the FLAG co-IP of BCDIN3Df, but performed in the presence of RNase A (30 µg; 1.5 µL at 20 µg/µL)
T2 sequence: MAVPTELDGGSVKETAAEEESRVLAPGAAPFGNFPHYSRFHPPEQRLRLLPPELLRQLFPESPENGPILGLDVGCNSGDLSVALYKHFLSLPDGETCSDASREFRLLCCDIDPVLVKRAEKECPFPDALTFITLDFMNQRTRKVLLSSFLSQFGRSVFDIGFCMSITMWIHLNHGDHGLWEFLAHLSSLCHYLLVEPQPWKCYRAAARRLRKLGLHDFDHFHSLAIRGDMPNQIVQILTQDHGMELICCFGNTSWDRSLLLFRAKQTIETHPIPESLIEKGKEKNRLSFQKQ

[3] = molecular target: T2, BCDIN3D-FLAG (human); experiment: co-IP; HeLa-S3-FlpIn control and BCDIN3Df lysates (mock treated), anti-FLAG M2 beads, 4 h at 4 °C, co-IP buffer (20 mM HEPES pH 7.5, 150 mM NaCl, 20% glycerol, 0.1% NP-40, 1 mM EDTA), elution with 3×FLAG peptide, western blots
[4] = molecular target: T3, EPRS (bifunctional glutamyl-prolyl-tRNA synthase), endogenous (human (endogenous in HeLa-S3-FlpIn)), P07814; experiment: co-IP; 5 µg anti-EPRS (or anti-GFP control) antibody, Dynabeads Protein G, lysates of HeLa-S3-FlpIn control and BCDIN3D-KO cells, quantitative LI-COR western blot for EPRS and MARS; details: remark: other sources report otherwise
T3 chain: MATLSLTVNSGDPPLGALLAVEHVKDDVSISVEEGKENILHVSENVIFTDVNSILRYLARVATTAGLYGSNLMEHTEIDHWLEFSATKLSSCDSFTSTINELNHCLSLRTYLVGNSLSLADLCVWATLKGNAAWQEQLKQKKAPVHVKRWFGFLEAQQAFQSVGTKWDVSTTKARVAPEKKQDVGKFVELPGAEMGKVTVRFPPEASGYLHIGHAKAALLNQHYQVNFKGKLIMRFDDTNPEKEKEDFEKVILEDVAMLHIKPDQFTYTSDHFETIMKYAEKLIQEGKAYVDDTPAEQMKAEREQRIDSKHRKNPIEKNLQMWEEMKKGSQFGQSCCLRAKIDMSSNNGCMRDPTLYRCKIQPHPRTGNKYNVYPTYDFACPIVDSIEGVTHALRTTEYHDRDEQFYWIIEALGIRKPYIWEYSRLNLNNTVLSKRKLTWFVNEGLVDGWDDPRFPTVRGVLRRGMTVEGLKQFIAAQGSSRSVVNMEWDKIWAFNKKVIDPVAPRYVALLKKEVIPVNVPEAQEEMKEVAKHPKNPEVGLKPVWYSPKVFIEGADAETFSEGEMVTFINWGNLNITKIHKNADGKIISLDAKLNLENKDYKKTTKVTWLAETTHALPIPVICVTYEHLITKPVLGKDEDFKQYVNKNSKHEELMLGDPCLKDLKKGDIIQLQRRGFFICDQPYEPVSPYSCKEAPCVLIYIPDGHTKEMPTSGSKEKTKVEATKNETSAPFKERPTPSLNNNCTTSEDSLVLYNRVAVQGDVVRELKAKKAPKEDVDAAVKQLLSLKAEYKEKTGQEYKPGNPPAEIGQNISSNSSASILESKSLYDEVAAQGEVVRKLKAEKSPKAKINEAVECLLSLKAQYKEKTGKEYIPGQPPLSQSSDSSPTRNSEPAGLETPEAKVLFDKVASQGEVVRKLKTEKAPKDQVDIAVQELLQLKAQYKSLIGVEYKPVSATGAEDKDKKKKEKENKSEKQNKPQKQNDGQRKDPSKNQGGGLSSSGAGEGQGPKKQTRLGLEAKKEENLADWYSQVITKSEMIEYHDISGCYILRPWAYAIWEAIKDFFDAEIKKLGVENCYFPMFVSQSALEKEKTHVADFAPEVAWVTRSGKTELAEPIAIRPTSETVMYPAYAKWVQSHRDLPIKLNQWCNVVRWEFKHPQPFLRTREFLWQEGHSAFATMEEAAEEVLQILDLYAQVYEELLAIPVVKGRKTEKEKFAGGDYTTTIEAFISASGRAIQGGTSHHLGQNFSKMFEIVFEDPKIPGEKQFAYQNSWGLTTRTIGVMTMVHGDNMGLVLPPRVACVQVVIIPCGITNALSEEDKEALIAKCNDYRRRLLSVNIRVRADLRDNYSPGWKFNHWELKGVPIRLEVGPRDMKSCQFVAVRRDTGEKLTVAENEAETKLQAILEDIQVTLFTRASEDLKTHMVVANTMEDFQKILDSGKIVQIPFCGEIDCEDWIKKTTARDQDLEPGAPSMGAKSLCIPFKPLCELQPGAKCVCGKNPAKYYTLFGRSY

[5] = molecular target: GST-EPRS (UniProt P07814); experiment: pull-down; 10 pmol GST-EPRS or GST-MARS on glutathione beads, then mock or 100 pmol synthetic RNA-5′-P or -5′-Pme, then 100 pmol untagged BCDIN3D in binding buffer 2 (50 mM Tris-HCl pH 8, 50 mM NaCl, 0.5% NP-40, 5 mM DTT), 2 h at 4 °C; both purified
[6] = molecular target: T1, GST-MARS; experiment: as above

- binding [1]: binds weakly
Molecule: EPRS-C-MYC/DDK (from UniProt P07814 1-1512)

- binding [3]: binds
Molecule: EPRS (bifunctional glutamyl-prolyl-tRNA synthase), endogenous (from UniProt P07814 1-1512)
- binding [2]: no binding (condition: lysate treated with 30 µg RNase A)

- binding [3]: binds
B1: MARS (methionyl tRNA synthetase), endogenous (protein, UniProt P56192 1-900)
chain: T1 sequence
- binding [2]: no binding (condition: lysate treated with 30 µg RNase A)

- binding [4]: binds
B2: MARS (methionyl tRNA synthetase), endogenous, P56192 1-900 (protein)
chain: T1 sequence

- binding [5]: binds weakly
- binding [6]: binds weakly
B3: untagged recombinant BCDIN3D (enzyme, UniProt Q7Z5W3 1-292)
chain: T2 sequence
